Reference: publication PMC11489182
These are yes or no findings as the source states them, for the method shown. In cells and extracts the contact can be indirect. Some binding calls cover weakened binding; strength is not graded here. Where a sequence is shown, tags or fusion partners need not be part of it.

By UniProt entry, the sequences of proteins in these tests, tags left out. Where a name states a change or a piece, a line headed by the entry shows the natural chain unless it says otherwise.
UniProt P38936: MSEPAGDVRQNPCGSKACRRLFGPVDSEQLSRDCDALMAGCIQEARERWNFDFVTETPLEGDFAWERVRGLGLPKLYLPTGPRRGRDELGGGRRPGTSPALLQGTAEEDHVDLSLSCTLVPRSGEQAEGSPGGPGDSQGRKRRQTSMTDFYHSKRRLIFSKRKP

T1: Flag-tagged full-length USP44 (ubiquitin-specific protease 44) (human) (UniProt Q9H0E7)
T1 sequence: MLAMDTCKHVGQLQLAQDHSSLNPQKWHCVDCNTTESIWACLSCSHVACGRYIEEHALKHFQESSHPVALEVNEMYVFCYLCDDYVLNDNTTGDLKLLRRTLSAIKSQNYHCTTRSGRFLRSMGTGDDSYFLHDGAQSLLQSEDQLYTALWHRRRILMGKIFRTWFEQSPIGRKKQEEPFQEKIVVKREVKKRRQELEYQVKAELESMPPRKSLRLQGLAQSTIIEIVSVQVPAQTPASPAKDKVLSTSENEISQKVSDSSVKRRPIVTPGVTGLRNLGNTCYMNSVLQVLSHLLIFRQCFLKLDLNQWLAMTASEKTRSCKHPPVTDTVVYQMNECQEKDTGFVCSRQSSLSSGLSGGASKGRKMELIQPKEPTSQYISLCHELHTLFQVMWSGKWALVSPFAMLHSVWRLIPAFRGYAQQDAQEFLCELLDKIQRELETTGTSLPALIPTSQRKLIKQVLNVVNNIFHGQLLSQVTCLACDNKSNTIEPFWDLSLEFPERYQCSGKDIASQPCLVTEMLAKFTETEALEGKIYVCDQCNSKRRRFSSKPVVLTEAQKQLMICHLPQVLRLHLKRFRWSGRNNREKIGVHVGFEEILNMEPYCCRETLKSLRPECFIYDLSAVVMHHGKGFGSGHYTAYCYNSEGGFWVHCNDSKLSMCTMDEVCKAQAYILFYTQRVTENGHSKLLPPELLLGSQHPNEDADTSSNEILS

T2: Flag-USP44 mutant C282A (catalytically inactive) (human) (UniProt Q9H0E7)
T2 sequence: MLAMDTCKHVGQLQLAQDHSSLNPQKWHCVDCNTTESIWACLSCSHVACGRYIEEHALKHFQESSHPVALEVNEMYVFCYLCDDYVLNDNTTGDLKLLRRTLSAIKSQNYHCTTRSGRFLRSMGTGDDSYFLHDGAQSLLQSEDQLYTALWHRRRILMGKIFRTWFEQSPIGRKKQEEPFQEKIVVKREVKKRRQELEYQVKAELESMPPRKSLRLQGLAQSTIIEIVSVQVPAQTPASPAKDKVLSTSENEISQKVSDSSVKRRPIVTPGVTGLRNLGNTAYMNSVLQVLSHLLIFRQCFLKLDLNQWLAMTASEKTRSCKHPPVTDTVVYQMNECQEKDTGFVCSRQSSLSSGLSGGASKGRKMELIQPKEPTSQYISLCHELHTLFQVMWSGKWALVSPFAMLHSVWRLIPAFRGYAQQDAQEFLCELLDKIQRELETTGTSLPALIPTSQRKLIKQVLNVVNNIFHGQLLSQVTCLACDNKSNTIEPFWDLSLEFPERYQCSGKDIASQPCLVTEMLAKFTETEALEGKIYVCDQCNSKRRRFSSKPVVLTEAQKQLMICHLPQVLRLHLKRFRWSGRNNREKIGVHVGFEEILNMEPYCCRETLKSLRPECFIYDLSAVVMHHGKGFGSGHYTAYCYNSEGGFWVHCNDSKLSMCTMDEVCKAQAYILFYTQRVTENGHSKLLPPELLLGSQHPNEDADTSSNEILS

B1: Flag-tagged full-length USP44 (ubiquitin-specific protease 44) (enzyme, UniProt Q9H0E7 1-712)
chain: MLAMDTCKHVGQLQLAQDHSSLNPQKWHCVDCNTTESIWACLSCSHVACGRYIEEHALKHFQESSHPVALEVNEMYVFCYLCDDYVLNDNTTGDLKLLRRTLSAIKSQNYHCTTRSGRFLRSMGTGDDSYFLHDGAQSLLQSEDQLYTALWHRRRILMGKIFRTWFEQSPIGRKKQEEPFQEKIVVKREVKKRRQELEYQVKAELESMPPRKSLRLQGLAQSTIIEIVSVQVPAQTPASPAKDKVLSTSENEISQKVSDSSVKRRPIVTPGVTGLRNLGNTCYMNSVLQVLSHLLIFRQCFLKLDLNQWLAMTASEKTRSCKHPPVTDTVVYQMNECQEKDTGFVCSRQSSLSSGLSGGASKGRKMELIQPKEPTSQYISLCHELHTLFQVMWSGKWALVSPFAMLHSVWRLIPAFRGYAQQDAQEFLCELLDKIQRELETTGTSLPALIPTSQRKLIKQVLNVVNNIFHGQLLSQVTCLACDNKSNTIEPFWDLSLEFPERYQCSGKDIASQPCLVTEMLAKFTETEALEGKIYVCDQCNSKRRRFSSKPVVLTEAQKQLMICHLPQVLRLHLKRFRWSGRNNREKIGVHVGFEEILNMEPYCCRETLKSLRPECFIYDLSAVVMHHGKGFGSGHYTAYCYNSEGGFWVHCNDSKLSMCTMDEVCKAQAYILFYTQRVTENGHSKLLPPELLLGSQHPNEDADTSSNEILS

Assays:
Assay in all cases: co-IP; lysates of transfected 8505C or K1 cells incubated overnight at 4°C with primary antibody (anti-Flag or anti-p21) or IgG, Protein A/G-agarose beads 4 h at 4°C, washed with RIPA buffer, western blotting
[1] = target: T1, Flag-tagged full-length USP44 (ubiquitin-specific protease 44) (human)
[2] = target: T2, Flag-USP44 mutant C282A (catalytically inactive) (human)
[3] = target: endogenous p21 protein (human (endogenous in 8505C and K1)) (UniProt P38936)

Molecule | binding [1] | binding [2] | binding [3]
Myc-tagged p21 C-terminal region (amino acids 91-140) (from UniProt P38936 91-140) (domain or fragment) | binds |  | 
endogenous p21 protein (from UniProt P38936 1-164) | binds | binds | 
B1 |  |  | binds
